Measurements: article PMC4840315
These are yes or no findings as the source states them, for the method shown. Binding can be weak; no strength is given.

Target: insulin
Experiment: far-Western, overlay or dot blot; 20 ul insulin (1 ug/ul) run on SDS-PAGE, electroblotted on nitrocellulose; membrane incubated with His-tagged wild-type IGFBP7 or fragments (1:3000 dilution), room temperature; detected with anti-His antibody and fluorescent secondary antibody (Odyssey); both purified

binding: binds weakly
B1: IGFBP7-N fragment (1-171) (domain or fragment, UniProt Q16270 27-171)
chain: SSSDTCGPCEPASCPPLPPLGCLLGETRDACGCCPMCARGEGEPCGGGGAGRGYCAPGMECVKSRKRRKGKAGAAAGGPGVSGVCVCKSRYPVCGSDGTTYPSGCQLRAASQRAESRGEKAITQVSKGTCEQGPSIVTPPKDIWN
